Reference: publication PMC3046137
Results are given in words; binding and its absence hold for the method and conditions named. In cells and extracts the contact can be indirect. Here binding means that the protein was enriched with, or labelled near, the bait; the list need not be complete. Sequences can lack the tags named with a protein.

Sequences of proteins named here, by UniProt entry; tags and fusion partners are left off.
UniProt P40337: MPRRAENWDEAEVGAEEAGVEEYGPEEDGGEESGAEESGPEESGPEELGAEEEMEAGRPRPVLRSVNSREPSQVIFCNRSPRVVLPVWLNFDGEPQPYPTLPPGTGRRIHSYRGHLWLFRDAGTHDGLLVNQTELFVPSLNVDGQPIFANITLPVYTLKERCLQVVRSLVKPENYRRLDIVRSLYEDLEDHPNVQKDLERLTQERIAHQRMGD
UniProt Q15370: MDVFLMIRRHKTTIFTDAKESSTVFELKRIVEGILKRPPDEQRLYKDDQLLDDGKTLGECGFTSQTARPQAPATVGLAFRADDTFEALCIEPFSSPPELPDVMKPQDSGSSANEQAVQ

Biological target: T1, FLAG-p160 (Myb-binding protein p160) (UniProt Q7TPV4)
T1 sequence: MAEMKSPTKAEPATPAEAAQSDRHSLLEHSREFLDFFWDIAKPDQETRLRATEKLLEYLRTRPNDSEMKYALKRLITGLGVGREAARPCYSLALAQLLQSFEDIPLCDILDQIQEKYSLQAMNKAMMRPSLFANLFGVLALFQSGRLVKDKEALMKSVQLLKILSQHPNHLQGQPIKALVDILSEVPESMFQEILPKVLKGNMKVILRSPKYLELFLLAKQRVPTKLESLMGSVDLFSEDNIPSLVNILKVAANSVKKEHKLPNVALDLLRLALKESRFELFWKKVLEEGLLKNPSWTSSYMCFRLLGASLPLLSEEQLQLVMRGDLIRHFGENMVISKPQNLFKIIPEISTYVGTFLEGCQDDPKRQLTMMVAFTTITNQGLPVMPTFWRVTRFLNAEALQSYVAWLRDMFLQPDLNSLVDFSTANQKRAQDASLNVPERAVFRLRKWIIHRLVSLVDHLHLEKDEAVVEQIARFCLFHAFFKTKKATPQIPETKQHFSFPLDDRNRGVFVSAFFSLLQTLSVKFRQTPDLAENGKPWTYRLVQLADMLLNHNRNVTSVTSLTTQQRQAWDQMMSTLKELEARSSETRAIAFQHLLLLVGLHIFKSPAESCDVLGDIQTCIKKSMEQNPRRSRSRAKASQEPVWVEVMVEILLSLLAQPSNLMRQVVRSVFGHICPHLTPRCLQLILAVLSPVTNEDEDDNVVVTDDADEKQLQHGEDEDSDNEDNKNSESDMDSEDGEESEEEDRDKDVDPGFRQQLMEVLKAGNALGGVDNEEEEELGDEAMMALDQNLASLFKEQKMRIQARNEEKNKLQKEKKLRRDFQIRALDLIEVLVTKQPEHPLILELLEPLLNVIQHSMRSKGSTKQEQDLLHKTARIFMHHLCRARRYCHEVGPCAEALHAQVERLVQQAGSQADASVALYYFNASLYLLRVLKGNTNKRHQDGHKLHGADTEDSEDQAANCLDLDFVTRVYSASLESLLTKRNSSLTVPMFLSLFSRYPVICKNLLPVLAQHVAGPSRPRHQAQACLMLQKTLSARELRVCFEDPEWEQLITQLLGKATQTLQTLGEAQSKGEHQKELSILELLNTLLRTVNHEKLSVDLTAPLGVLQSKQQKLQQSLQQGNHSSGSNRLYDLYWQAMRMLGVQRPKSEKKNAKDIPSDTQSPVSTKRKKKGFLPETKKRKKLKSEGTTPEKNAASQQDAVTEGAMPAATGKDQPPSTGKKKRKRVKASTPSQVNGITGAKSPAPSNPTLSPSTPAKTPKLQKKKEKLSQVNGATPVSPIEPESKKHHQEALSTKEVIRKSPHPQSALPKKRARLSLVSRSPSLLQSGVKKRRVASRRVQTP
Assay: affinity purification with mass spectrometry; anti-FLAG immunoprecipitation of FLAG-p160 from transfected 293T cells under non-denaturing conditions; compared with FLAG empty vector immunoprecipitate by ICAT quantitative proteomics (IP-ICAT)

Row | binding | Substance
1 | binds | VHL (endogenous, 293T cells) (from UniProt P40337 1-213)
2 | binds | elongin B (endogenous, 293T cells) (from UniProt Q15370 1-118)
